PubChem BioAssay AID504791, Drosophila RNAi Screening Center, 2011

- Test: 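Genes whose knock-down strengthens or weakens small-RNA reporter silencing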 (primary screen)
- System: Drosophila S2-derived reporter cells
- Reagents: long dsRNA against Drosophila genes, about 150-250 ng dsRNA per well (siRNA assay); about 80-120 ng (miRNA assay)
- Time to read-out: about 5 days (siRNA assay); about 4 days (miRNA assay)
- Treatment: copper sulfate induction of reporters: 25 µM (siRNA assay); 200 mM stated (miRNA assay), 1-2 days before reading
- Read-out: 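Per-well ratio of Renilla over firefly light, expressed relative to that plate's average ratio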
- Scale: siRNA reporter hit score: higher = 3 marks a strong hit with raised ratio; -3 a strong hit with lowered ratio
- Active means: 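First-pass picks had plate-scaled ratios over 1.5 for the siRNA assay, over 1.6 for the miRNA assay, or under 0.6; two distinct dsRNAs had to score alike on retest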
In all, the deposit lists about 23,000 reagents; below is an unselected part of those that have a named target and a result. In the full data, 199 (0.86%) were called active. 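Plate-scaled ratios behind the calls are not deposited; printed light signals are raw; many rows marked increased or decreased are still called inactive.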 A plus sign joins genes that one reagent is predicted to hit.

The first 4 entries, ahead of the listing:
predicted target,DRSC id,siRNA reporter hit score,stable siRNA reporter change,miRNA reporter change,"stable assay Renilla, run 1 (luminescence)","stable assay firefly, run 1 (luminescence)",call
Ugt49B2 (UDP-glycosyltransferase family 49 member B2),DRSC16049,,,,8455,4.05e5,inactive
CG11275,DRSC04095,,,,7571,4.62e5,inactive
Or23a (Odorant receptor 23a),DRSC00767,,,,8593,4.16e5,inactive
CG33137,DRSC22131,,,,10039,7.52e5,inactive

The listing, repeating the preview:
predicted target,DRSC id,siRNA reporter hit score,stable siRNA reporter change,miRNA reporter change,"stable assay Renilla, run 1 (luminescence)","stable assay firefly, run 1 (luminescence)",call
Ugt49B2 (UDP-glycosyltransferase family 49 member B2),DRSC16049,,,,8455,4.05e5,inactive
CG11275,DRSC04095,,,,7571,4.62e5,inactive
Or23a (Odorant receptor 23a),DRSC00767,,,,8593,4.16e5,inactive
CG33137,DRSC22131,,,,10039,7.52e5,inactive
eEF1gamma (eukaryotic translation elongation factor 1 gamma),DRSC16659,,,,7927,4.24e5,inactive
PolD2 (DNA polymerase delta subunit 2),DRSC08147,,,,9513,3.15e5,inactive
Mvl (Malvolio),DRSC16752,,,,6956,2.83e5,inactive
Dhc1 (Dynein heavy chain 1),DRSC16503,,,,7051,4.45e5,inactive
Arp53D (Actin-related protein 53D),DRSC05923,,,,6072,4.06e5,inactive
CG11353,DRSC08182,,,,7896,4.36e5,inactive
trem (trade embargo),DRSC15575,,,,7351,4.12e5,inactive
CG31054 (retired record) + CG4849,DRSC28625,,,reporter ratio raised past the hit cutoff,,,inactive
CG31300,DRSC14657,,,,6910,2.83e5,inactive
Psi (P-element somatic inhibitor),DRSC07519,-3,reporter ratio raised past the hit cutoff,reporter ratio raised past the hit cutoff,11690,2.95e5,active
CG32407,DRSC09789,,,,6355,4.70e5,inactive
Ir25a (Ionotropic receptor 25a),DRSC00462,,,,7331,4.09e5,inactive
CG31126,DRSC14623,,,,6944,3.77e5,inactive
Csk (C-terminal Src kinase),DRSC12861,,,,3947,2.92e5,inactive
Csk (C-terminal Src kinase),DRSC15223,,,,7018,2.92e5,inactive
Csk (C-terminal Src kinase),DRSC23272,,,,2631,2.87e5,inactive
CG34435,DRSC18086,,,,5843,3.65e5,inactive
CG4502,DRSC02755,,,,44400,1.69e5,inactive
CG4502,DRSC23237,,,,3175,3.09e5,inactive
js (jiangshi),DRSC15004,,,,7011,3.60e5,inactive
lectin-37Db,DRSC03279,,,,7590,4.05e5,inactive
CG31077,DRSC13805,,,,8336,4.69e5,inactive
Vps25 (Vacuolar protein sorting 25),DRSC06486,,,,7909,5.06e5,inactive
Plap (Phospholipase A2 activator protein),DRSC00678,,,,13536,4.50e5,inactive
Droj2 (DnaJ-like-2),DRSC16450,,,,9054,4.91e5,inactive
Cubn (Cubilin),DRSC18256,,,,8260,3.50e5,inactive
HIP + HIP-R,DRSC18245,,,,7386,4.71e5,inactive
Sema2b (Semaphorin 2b),DRSC05609,,,,6086,3.97e5,inactive
Sema2b (Semaphorin 2b),DRSC05611,,,,7183,4.71e5,inactive
Sema2b (Semaphorin 2b),DRSC06867,,,,5734,3.39e5,inactive
CG32115,DRSC22607,,,,6370,6.28e5,inactive
CG7214,DRSC03028,,,,9298,3.52e5,inactive
CG7214,DRSC21869,,,,8682,6.08e5,inactive
Rb97D (Ribonuclear protein at 97D),DRSC16815,,,,5435,4.24e5,inactive
CG8119,DRSC20083,,,,5814,4.00e5,inactive
"beta4GalNAcTA (beta1,4-N-acetylgalactosaminyltransferase A)",DRSC05944,,,,3511,3.85e5,inactive
CG13367,DRSC18485,,,,7927,4.49e5,inactive
CG13367,DRSC18486,,,,8017,5.35e5,inactive
CG1983,DRSC15410,,,,5751,4.99e5,inactive
cmet (CENP-meta),DRSC03511,,,,7119,4.12e5,inactive
CG4563,DRSC04474,,,,6947,3.83e5,inactive
CG14861,DRSC14984,,,,7866,4.82e5,inactive
sbb (scribbler),DRSC05723,,,,7512,3.94e5,inactive
sbb (scribbler),DRSC07676,,,,7854,3.75e5,inactive
CG15480,DRSC02490,,,,6778,3.29e5,inactive
dgt2 (dim gamma-tubulin 2),DRSC02548,,,,11966,5.59e5,inactive
Kal1 (Kallmann syndrome 1),DRSC15983,,reporter ratio raised past the hit cutoff,,11256,2.86e5,inactive
CG8414,DRSC07168,,,,6614,3.42e5,inactive
CG18210 (retired record),DRSC19089,,,,6102,6.34e5,inactive
CG18210 (retired record),DRSC19795,,,,8167,5.38e5,inactive
"ProRS-m (Prolyl-tRNA synthetase, mitochondrial)",DRSC08261,,,,6092,3.81e5,inactive
Mtmr6 (Myotubularin related protein 6),DRSC04046,,,,6944,3.63e5,inactive
CG13884,DRSC08354,,,,5866,2.95e5,inactive
CG9577,DRSC20693,,,,2591,3.59e5,inactive
CG9806,DRSC18444,,,,5471,4.46e5,inactive
Alg13 (Alg13 UDP-N-acetylglucosaminyltransferase subunit),DRSC14864,,,,4335,5.00e5,inactive
CG17782,DRSC15267,,,,6647,2.84e5,inactive
CG17782,DRSC23227,,,,4758,3.13e5,inactive
"Adat1 (Adenosine deaminase, tRNA-specific 1)",DRSC03479,,,,7315,3.46e5,inactive
SIFa (SIFamide),DRSC04480,,,,6803,5.04e5,inactive
Obp83ef (Odorant-binding protein 83ef),DRSC12268,,,,6190,3.31e5,inactive
Usp39 (Ubiquitin specific protease 39),DRSC20032,,,,9267,3.83e5,inactive
CG42531,DRSC05318,,,,6986,6.24e5,inactive
Mesh1 (Metazoan SpoT homolog-1),DRSC14433,,,,6671,5.68e5,inactive
CG30022,DRSC22405,,,,5163,4.42e5,inactive
Ucp4C (Uncoupling protein 4C),DRSC03132,,,,6658,3.32e5,inactive
Ir76b (Ionotropic receptor 76b),DRSC10831,,,,6970,3.78e5,inactive
Ssl2 (Strictosidine synthase-like 2),DRSC14395,,,,6115,3.44e5,inactive
Ssl2 (Strictosidine synthase-like 2),DRSC22796,,,,5024,4.15e5,inactive
CG16717,DRSC10221,,,,6578,4.90e5,inactive
CG4004,DRSC19791,,reporter ratio lowered past the hit cutoff,,4855,4.68e5,inactive
CG4004,DRSC19882,,,,5414,4.14e5,inactive
CG4456 + Hsp22,DRSC11187,,,,6634,4.22e5,inactive
CG4456 + Hsp22,DRSC11192,,,,7497,3.88e5,inactive
P5cr-2 (Pyrroline-5-carboxylate reductase-like 2),DRSC15889,,,,7507,3.34e5,inactive
CG3483,DRSC04371,,,,24011,1.46e6,inactive
CG3603,DRSC18317,,,,6507,3.00e5,inactive
svp (seven up),DRSC12899,,,,4332,3.38e5,inactive
svp (seven up),DRSC15311,,reporter ratio raised past the hit cutoff,,5095,1.74e5,inactive
svp (seven up),DRSC17075,,,,2760,3.21e5,inactive
